Experimental data reported in doi:10.1101/265785.

Biological target: Hydra Sp5, HA-tagged (HySp5) (Hydra vulgaris)
Assay: co-IP

Substance	binding
constitutively active human β-catenin (pFLAG-CMV-human-β-cateninΔ45) (from UniProt P35222 1-781)	binds
endogenous TCF-1 (HEK293T) (from UniProt P36402 1-384)	binds
human TCF-1 (huTCF-1) (from UniProt P36402 1-384)	binds

Results are given in words; binding and its absence hold for the method and conditions named. In cells and extracts the contact can be indirect. Binding can be weak; no strength is given.
